# In the supplement of paper PMC8728848:
# Some of the results follow.
# Key:
# Assay in all cases: glycan array binding signal (z-score within array); higher = stronger binding
# Settings in all cases: glycan notation: IUPAC condensed, linker removed
# [1] = target: Gal6S(b1-4)Glc
# In short: (§1)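 Glycan array data were curated from 3228 arrays in the Consortium for Functional Glycomics database and kept only where the protein sequence was available. Glycan names were converted to IUPAC-condensed notation, and columns mapping to the same glycan were averaged. The binding signal is a within-array Z-score, averaged across arrays of the same protein sequence at different concentrations or buffers and across linkers. Negative Z-scores can be read as non-binding.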
# [2] = target: Gal6S(b1-4)Glc6S
# In short: as §1
# [3] = target: Gal6S(b1-4)GlcNAc
# In short: as §1
# [4] = target: Gal6S(b1-4)GlcNAc6S
# In short: as §1
# [5] = target: GalNAc(a1-3)Gal
# In short: as §1
# [6] = target: GalNAc(a1-3)GalNAc
# In short: as §1
# [7] = target: GalNAc(a1-3)GalNAc(b1-3)Gal(a1-4)Gal(b1-4)Glc
# In short: as §1
# [8] = target: GalNAc(a1-3)GalNAc(b1-3)Gal(a1-4)Gal(b1-4)GlcNAc
# In short: as §1
# [9] = target: GalNAc(b1-3)Gal
# In short: as §1
# [10] = target: GalNAc(b1-3)Gal(a1-4)Gal(b1-4)GlcNAc
# In short: as §1
# [11] = target: GalNAc(b1-3)Gal(a1-4)Gal(b1-4)GlcNAc(b1-3)Gal(b1-4)Glc
# In short: as §1
# [12] = target: GalNAc(b1-3)Gal(a1-6)Gal(b1-4)Glc
# In short: as §1
# [13] = target: GalNAc(b1-3)GalNAc
# In short: as §1
# [14] = target: GalNAc(b1-3)GlcNAc
# In short: as §1
# [15] = target: GalNAc(b1-4)Gal(b1-4)Glc
# In short: as §1
# [16] = target: GalNAc(b1-4)GlcNAc
# In short: as §1
# [17] = target: GalNAc(b1-4)GlcNAc(b1-2)Man
# In short: as §1
# [18] = target: GalNAc(b1-4)GlcNAc(b1-2)Man(a1-3)[GalNAc(b1-4)GlcNAc(b1-2)Man(a1-6)]Man(b1-4)GlcNAc(b1-4)GlcNAc
# In short: as §1
# [19] = target: GalNAc(b1-4)GlcNAc(b1-3)GalNAc(b1-4)GlcNAc
# In short: as §1
# [20] = target: GalNAc(b1-4)GlcNAc6S
# In short: as §1
# [21] = target: GalNAc(b1-6)GalNAc
# In short: as §1
# [22] = target: GalNAc3S(b1-4)GlcNAc
# In short: as §1
# [23] = target: GalNAc3S(b1-4)GlcNAc3S
# In short: as §1
# [24] = target: GalNAc3S(b1-4)[Fuc(a1-3)]GlcNAc
# In short: as §1
# [25] = target: GalNAc4S6S(b1-4)GlcNAc
# In short: as §1
# [26] = target: GalNAc6S(b1-4)GlcNAc
# In short: as §1
# [27] = target: Glc(a1-4)Glc
# In short: as §1
# [28] = target: Glc(a1-4)Glc(a1-4)Glc(a1-4)Glc
# In short: as §1
# [29] = target: Glc(a1-6)Glc(a1-6)Glc
# In short: as §1
# [30] = target: Glc(a1-6)Glc(a1-6)Glc(a1-6)Glc
# In short: as §1
# [31] = target: Glc(b1-4)Glc
# In short: as §1
# [32] = target: Glc(b1-6)Glc
# In short: as §1
# [33] = target: GlcA(b1-3)Gal
# In short: as §1
# [34] = target: GlcA(b1-3)GlcNAc
# In short: as §1
# [35] = target: GlcA(b1-6)Gal
# In short: as §1
# [36] = target: GlcA3S(b1-3)Gal(b1-4)GlcNAc(b1-2)Man
# In short: as §1
# [37] = target: GlcA3S(b1-3)Gal(b1-4)GlcNAc(b1-3)Gal(b1-4)Glc
# In short: as §1
binder,measurement,setting,value
LlpA (Arthrobacter sp) (protein) MGSSHHHHHHSSGLVPRGSHMTLHPETALRPGAAATSPNSRYRLLYQTDGNLVLYGPDGPLWDSGTNGHGAGACIMQADGNLVLYGPNDEYVWDTETDNNPGSRLVIQDDGNAVIYRPDGSPLWATETCQPPGSADSHVLQSGSTLTPTHGIRSANGLYGLLYQTDGNLVFYGPDGPLWDSGTNGRGAGACIMQPDGNLVLYGPHDEYVWDTETDNNPGSRLVIQDDGNAVIYRPDGNPTWVTGTH,glycan array binding signal (z-score),[1],-0.184
same,glycan array binding signal (z-score),[2],-0.843
same,glycan array binding signal (z-score),[3],-1.13
same,glycan array binding signal (z-score),[4],0.734
same,glycan array binding signal (z-score),[5],0.573
same,glycan array binding signal (z-score),[6],0.469
same,glycan array binding signal (z-score),[7],-0.632
same,glycan array binding signal (z-score),[8],-0.155
same,glycan array binding signal (z-score),[9],0.69
same,glycan array binding signal (z-score),[10],0.987
same,glycan array binding signal (z-score),[11],1.14
same,glycan array binding signal (z-score),[12],-1.19
same,glycan array binding signal (z-score),[13],-0.008
same,glycan array binding signal (z-score),[14],-0.836
same,glycan array binding signal (z-score),[15],0.858
same,glycan array binding signal (z-score),[16],1.06
same,glycan array binding signal (z-score),[17],0.023
same,glycan array binding signal (z-score),[18],-0.231
same,glycan array binding signal (z-score),[19],-0.389
same,glycan array binding signal (z-score),[20],0.851
same,glycan array binding signal (z-score),[21],-0.224
same,glycan array binding signal (z-score),[22],0.127
same,glycan array binding signal (z-score),[23],1.09
same,glycan array binding signal (z-score),[24],-0.304
same,glycan array binding signal (z-score),[25],0.428
same,glycan array binding signal (z-score),[26],-0.863
same,glycan array binding signal (z-score),[27],0.07
same,glycan array binding signal (z-score),[28],0.908
same,glycan array binding signal (z-score),[29],-0.331
same,glycan array binding signal (z-score),[30],-0.723
same,glycan array binding signal (z-score),[31],-0.525
same,glycan array binding signal (z-score),[32],-1.07
same,glycan array binding signal (z-score),[33],-0.288
same,glycan array binding signal (z-score),[34],-0.445
same,glycan array binding signal (z-score),[35],0.793
same,glycan array binding signal (z-score),[36],-0.071
same,glycan array binding signal (z-score),[37],-0.598

# Retrieved one by one from the entries so far (three):
binder,measurement,setting,value
LlpA (Arthrobacter sp) (protein) MGSSHHHHHHSSGLVPRGSHMTLHPETALRPGAAATSPNSRYRLLYQTDGNLVLYGPDGPLWDSGTNGHGAGACIMQADGNLVLYGPNDEYVWDTETDNNPGSRLVIQDDGNAVIYRPDGSPLWATETCQPPGSADSHVLQSGSTLTPTHGIRSANGLYGLLYQTDGNLVFYGPDGPLWDSGTNGRGAGACIMQPDGNLVLYGPHDEYVWDTETDNNPGSRLVIQDDGNAVIYRPDGNPTWVTGTH,glycan array binding signal (z-score),[19],-0.389
same,glycan array binding signal (z-score),[14],-0.836
same,glycan array binding signal (z-score),[37],-0.598
